In patent US20030175250A1, “Isolated peptides which bind to HLA molecules and uses thereof” (priority 2002, published 2003):
Part of at least one peptide drawing is inferred or uncertain, most often the ends. No end group written: not given here.

Test system: Unsensitized CD8+ selected T cells from melanoma patient NW1539
Experiment: Ex vivo ELISPOT with unsensitized CD8+ selected NW1539 T cells
Assay type: cell-based, human
Conditions: patient NW1539, T2.A3 cells pulsed with peptide, FIG. 9

MPFATPMEA [p94-102, MPFATPMEA]
precursor frequency of peptide-reactive T cells: approximately 0.7 % of the CD8+ T cell population
